Results from PubChem BioAssay AID1794844 (National Center for Advancing Translational Sciences (NCATS), 2023).
In all, about 2,800 compounds went through this assay and fewer than 10 were called active. About 7% were inconclusive and are not listed. Calls follow the shape of the dose curve; as a rule, active = well fitted inhibition curve with a large enough effect; inconclusive = small, poorly fitted or top-dose-only effect; inactive = no such curve, though single readings can be large or run the other way. The list shows a part of the results.

By UniProt entry, the sequences of proteins in these tests, tags left out. Where a name states a change or a piece, a line headed by the entry shows the natural chain unless it says otherwise.
UniProt C7C422: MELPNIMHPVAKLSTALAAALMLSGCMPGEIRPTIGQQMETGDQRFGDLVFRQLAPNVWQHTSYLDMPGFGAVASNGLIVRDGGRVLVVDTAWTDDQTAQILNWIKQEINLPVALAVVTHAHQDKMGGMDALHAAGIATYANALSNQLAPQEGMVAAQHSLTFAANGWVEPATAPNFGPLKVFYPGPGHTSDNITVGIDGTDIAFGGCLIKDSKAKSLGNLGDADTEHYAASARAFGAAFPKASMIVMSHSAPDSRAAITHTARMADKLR

Each compound was assayed against Metallo-beta-lactamase type 2 (Klebsiella pneumoniae) (UniProt C7C422) (assay: qHTS to identify inhibitors of the New Delhi Metallo-beta-lactamase (NDM): Nitrocefin screen against the machine-based learning selections.). Conditions: NDM-1 enzyme, nitrocefin hydrolysis, absorbance 485 nm; activity, negative = inhibition: at the top concentration.
Outline: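 Hydrolysis by 2 nM NDM-1 was followed by absorbance after >30 min compound preincubation in HEPES pH 7.0 buffer with 1 uM Zn2SO4. For nitrocefin (16.7 uM, 15 min, 485 nm) and meropenem (50 uM, 30 min, 300 nm), each substrate ran on separate plates.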
Also: % of control where 0% means no effect.

activity, negative = inhibition, inactive:
CNC(=O)[C@@H]1CN(C(=O)c2cc3cc(OC)ccc3[nH]2)C[C@H]1CO -11%
COC(=O)[C@@H]1Cc2ncn(Cc3ccc(OC)cc3)c2CN1C(=O)c1ccc(C#N)cc1 2.06% [at 57.5 µM]
O=C1NCCC[C@@H]1NC(=O)[C@H]1CN(C(=O)c2cccc(F)c2)CCN1S(=O)(=O)c1ccc(F)cc1 4.23%
CC1=C[C@@H](CNC(=O)C2CC2)[C@H](C(C)C)C[C@H]1CC(=O)N1CCOCC1 6.93% [at 57.5 µM]
CC(C)C[C@@H]1N[C@H](C(=O)NCc2ccc(C(F)(F)F)cc2)Cc2c[nH]c3cccc1c23 1.11% [at 57.5 µM]
CC(C)(C)CC(=O)Nc1ccc([C@@H](O)[C@H]2COCC(=O)N2Cc2ccccc2F)cc1 -1.39% [at 57.5 µM]
Cc1cc(C)c(CNC(=O)c2nc(Nc3ccccc3)cc3[nH]ccc23)c(=O)[nH]1 -4.13% [at 57.5 µM]
O=c1cc(-c2ccccn2)oc2c(Nc3ccccc3)nccc12 -1.82% [at 57.5 µM]
O=C(COc1ccccc1)N[C@H]1CO[C@H]2[C@@H]1OC[C@H]2OC(=O)Nc1ccccc1 -4.57% [at 57.5 µM]
CS(=O)(=O)Nc1cc(-c2noc([C@@H]3CCCN3Cc3ccccc3)n2)ccn1 -3.05% [at 57.5 µM]
CCCS(=O)(=O)N1CCC(Oc2nccnc2N2CCOCC2)C1 (stereo not given) 1.63%
NC(=O)c1cccc(-c2n[nH]c3c2CC(=O)N(CCOc2ccccc2)C3)c1 -8.42% [at 57.5 µM]
O=C(Cc1c[nH]c2ncc(-c3ccccc3Oc3ccccc3)cc12)NCc1cccnc1 -1.93% [at 57.5 µM]
O=C(NCc1csc(-c2cnccn2)n1)C(c1cccnc1)N1CCOCC1 (stereo not given) -2.44%
O=C(c1ccc(Oc2ccccc2)cc1)N1CCNc2cnc(Nc3cccc(C(F)(F)F)c3)nc2C1 2.49%
COCCNC(=O)[C@H]1C[C@H](Oc2ccccc2)CN1C(=O)Cc1cccc(C)c1 -10.4%
Cc1ccc(CCNC(=O)Cn2nc(C)n(CCc3ccccc3)c2=O)o1 1.62%
Cc1oc(C(O)c2cccc(O)c2)nc1C(=O)Nc1ccc(N2CCOCC2)cc1 (stereo not given) 2.1% [at 57.5 µM]
O=C(COc1ccccc1)N1CC[C@H]2CC(=O)N(c3ccccc3)CC[C@H]2C1 -2.55% [at 57.5 µM]
O=C(O)[C@@H]1CN(C(=O)c2ccc(=O)[nH]c2)C[C@H]1c1ccc2c(c1)OCO2 -5.25%
COc1cccc(N2C(=O)N[C@@H]3CCN(S(=O)(=O)c4ccccc4)[C@@H]3C2=O)c1 0.447% [at 57.5 µM]
CS(=O)(=O)c1ccc(CN2CCC[C@H]2c2nc(-c3ccnc(N4CCC(C(N)=O)CC4)c3)no2)cc1 -1.81%
O=C(Cc1c[nH]c2ncc(-c3cccc(F)c3)cc12)NCc1cccnc1 9.64% [at 57.5 µM]
O=C(CCc1ccc(O)cc1)N1CCN(Cc2ccccc2)CC(O)C1 (stereo not given) -1.57%
Nc1nc(NCCNC(=O)c2ccccc2Cl)cc(C2CC(O)C2)n1 (stereo not given) -3.42%
NC1CCCCN(C(=O)c2ccc3n[nH]nc3c2)C1 (stereo not given) -3.83%
CCCn1nc(C)c(-c2cc(C(=O)N3CCc4c(nc5cc(-c6ccccc6)[nH]n5c4=O)C3)[nH]n2)c1C 0.136%
O=C(NCC(F)F)C1CN(c2ccccc2)C(=O)N1 (stereo not given) 0.427% [at 57.5 µM]
CC(=O)NC1(C)CCN(Cc2cccc(-c3ccc4ccccc4c3)c2)C1 (stereo not given) -4.87% [at 57.5 µM]
Cc1cc(C(=O)N[C@H]2[C@H](O)[C@H](O)C[C@@H]2c2cccnc2)no1 0.0321% [at 57.5 µM]
Cc1cc(-c2cc3c(cn2)CN(Cc2ccccc2O)CCN3)ccn1 8.17% [at 57.5 µM]
CSc1ccc(-c2ccc3c(c2)C(=O)N2CCN(C(=O)CCC(=O)O)C[C@H]2C(=O)N3)cc1 -6.01%
NC(=O)c1ccc(NC(=O)C[C@H]2NC(=O)c3ccccc3NC2=O)cc1 8.29%
CN1CCCC2(C1)CN(Cc1cccnc1)c1ccc(C(=O)Nc3ccccc3)cc12 (stereo not given) 2.06% [at 57.5 µM]
Cc1noc(C)c1CCC(=O)NC(c1cnn(C)c1)C1CC(O)C1 (stereo not given) 12.5%
CCCN1C(=O)Cc2ccccc2C1C(=O)NCc1cccc(F)c1 (stereo not given) -2.47%
CSc1cccc(NC(=O)N[C@H]2CCN3C(=O)[C@H](CC4CCCCC4)NC(=O)[C@@H]3C2)c1 2.54%
Cc1cccc(OCCc2noc(C3CCCNC3)n2)c1 (stereo not given) -1.59%
COc1ccc(S(=O)(=O)N2CCc3c(C(=O)NC4CC4)cccc32)cc1 -2%
CNC(=O)C1CCN(C(=O)N2CC3CC(C2)[C@H]2CCCC(=O)N2C3)CC1 (stereo not given in full) 3.61%
O=C(NC[C@H]1COCc2nc3cc(F)ccc3n21)C1CC1 5.46% [at 76.7 µM]
Cc1cccc(CC(=O)N2CCC[C@H]2c2nc(-c3ccccc3)no2)c1 1.08%
CS(=O)(=O)N1CCC(C2CCN(C(=O)Cc3cccc(F)c3)C2)CC1 (stereo not given) 1.68%
CC(NC(=O)c1ccc(C(C)(C)C)cc1)C(=O)N1CCN(c2ccccn2)CC1 (stereo not given) -0.127%
O=C(O)c1ccc(CN2CC[C@@H](c3ccc4c(c3)OCO4)[C@H](O)C2)cc1 -3.59%
O=C(C[C@@H]1CCNC[C@@H]1Cc1cc(-c2ccc(F)cc2)on1)NCc1ccccc1 1.59% [at 57.5 µM]
CN(C)CCOCC1(C)COc2ccc(C(=O)Nc3ccc4[nH]ccc4c3)cc2N1 (stereo not given) 4.78% [at 57.5 µM]
Fc1ccc(-c2cc(CC3(NC4CCCCC4)COC3)no2)cc1 0.353% [at 57.5 µM]
Cc1noc2c(-c3cccc(CO)c3)cc(-c3cccs3)nc12 -8.66% [at 57.5 µM]
COCC(=O)NC[C@@H]1C=C(C)[C@H](CC(=O)Nc2ccccn2)C[C@H]1C(C)C 1.86% [at 57.5 µM]
CNC(=O)[C@@H](C1CC1)N1CCC[C@H]1C(=O)NC1CC1 7.5% [at 76.7 µM]
OC1(c2csc(CN3CCN(c4ccccn4)CC3)n2)CCN(CC2CCCCC2)CC1 3.3%
COCCNS(=O)(=O)c1cc(C(=O)O)cc(-c2cccc(C(C)N(C)C)c2)c1 (stereo not given) 1.2%
C#CCNC(=O)C[C@@H]1C[C@@H](C(C)C)[C@H](CNS(C)(=O)=O)C=C1C -7.21% [at 57.5 µM]
O=C(C[C@@H]1CCNC[C@@H]1Cc1cc(CN2CCOCC2)on1)N1CCC(Cc2ccccc2)CC1 -9.78%
CC1=C[C@@H](CNC(=O)C2CCCCC2)[C@H](C(C)C)C[C@H]1CC(=O)N1CCN(c2ccccn2)CC1 -2.19%
CC(C)CCNC(=O)c1cccnc1N1CC2CC(C1)[C@H]1CCCC(=O)N1C2 (stereo not given in full) 4.33%
COCCn1nc2n(c1=O)CCN(S(=O)(=O)c1ccc(Cl)s1)CC2 -6.63%
O[C@H]1[C@H](NCC2CCCCC2)[C@H]2CO[C@H](O2)[C@@H]1N1CCC(Cc2ccccc2)CC1 5.79% [at 57.5 µM]
O=C(NCCc1csc(-c2cccnc2)n1)C1NCCc2[nH]cnc21 (stereo not given) 16.4%

Entries shown so far that have a Cl atom, in the order listed:
activity, negative = inhibition, inactive:
Nc1nc(NCCNC(=O)c2ccccc2Cl)cc(C2CC(O)C2)n1 (stereo not given) -3.42%
COCCn1nc2n(c1=O)CCN(S(=O)(=O)c1ccc(Cl)s1)CC2 -6.63%
